This is one part of the list. Shown are side measurements of this screen, not its main read-out; they come without a call. Most of these compounds were active or inconclusive in the main read-out, so they are no random draw. The note in brackets gives the kind of curve behind each potency; many fits are weak.

This assay is described as follows: qHTS Assay for Identifying the Cell-Membrane Permeable IMPase Inhibitors. The following applies: CHO-M1 cells, IP1 accumulation, HTRF TR-FRET ratio; measured here: donor channel 620 nm AC50. An excerpt:
NCGC IMPase Assay Overview
Lithium has been widely used for the treatment of bipolar disorder. But lithium has a narrow therapeutic index and it can cause side effects such as thirst, weight gain, tremor, polyuria and memory problems. Although the mechanism for lithium action in treatment of bipolar disorder is still not fully understood, inhibition of inositol monophosphatase (IMPase) and the subsequent depletion of the inositol pool in living cells have been implicated as the primary therapeutic benefit of lithium therapy. Therefore, a selective IMPase inhibitor with reduced side effects might be a good drug candidate to replace lithium for the treatment of bipolar disorder. Several IMPase inhibitors have been discovered previously. However, they are not suitable for therapeutic use because of their poor cell membrane penetrability or oral bioavailability; the development of new cell-permeable IMPase inhibitors is needed.
IMPase catalyzes the hydrolysis of inositol-1-phosphate (IP1) to release free inositol. Binding of an agonist to a Gq coupled GPCR results in the activation of PLC, which hydrolyzes the PIP2 to form inositol-1,4,5-trisphosphate (IP3) and diacyl glycerol (DAG). While DAG activates protein kinase C (PKC), IP3 triggers the elevation of intracellular free Ca2+. The IP3 is very rapidly inactivated by hydrolysis to IP2, IP1 and then inositol by a series of enzymes including IMPase. Free inositols are used for synthesis of PI and thus start another inositol cycle.
To identify new cell-permeable IMPase inhibitors, we developed a cell-based IMPase assay in which the cytosolic IP1 is measured by a time-resolved fluorescence resonance energy transfer (TR-FRET) assay. In this assay, an IP1 specific antibody is used to detect the labeled IP1 tracer. When the cell lysate contains the elevated IP1 due to the inhibition of IMPase, the TR-FRET between the labeled antibody and IP1 tracer is disrupted resulting in a reduction in the total signal. Since the TR-FRET is used, this cell-based assay is a homogenous assay without cell wash and medium change that is suitable for assay miniaturization and HTS.
NCGC IMPase Assay Protocol Summary
A Chinese hamster ovary (CHO) cell line stably expressing the M1 receptor (CHO-M1) was obtained from ATCC and maintained in F-12 Kaighn's media (Invitrogen, Carlsbad, CA, 21127) supplemented with 10 % FBS, 100 units/ml penicillin, 100 ug/ml streptomycin and 250 ug/ml geneticin at 37C, 5% CO2 in a humidified atmosphere. Before the assay, aliquots of cells were frozen and stored at -135C. The assay was performed in 1536-well format. Data are reported for both the ratio of the two emission wavelengths, and also for the component 'donor' channel, Em2=620. […] AC50 values were determined from concentration-response data modeled with the standard Hill equation.
IMPase 1536-well assay protocol:
(1) Plate 4 ul/well (2000 cells) of cell suspension from frozen CHO-M1 Cells in white, tissue culture treated 1536-well plates that are cultured at 37C, 5 % CO2 for 16 to 30 hours.
(2) Add 23 nl/well of compound in DMSO solution. The final titration for each compound was between 0.6 nM and 46 uM.
(3) Add 1 ul of carbachol (50 uM in stimulation buffer containing10mM HEPES, 1mM CaCl2, 0.5 mM MgCl2, 4.2 mM KCl, 146 mM NaCl, 5.5 mM glucose, 50mM LiCl, pH 7.4.
(4) Incubation at 37C, 5 % CO2 for 30 min.
(5) Add 1 ul/well of d2-conjugated IP1 (d2-IP1) and 1 ul/well of Eu+ cryptate conjugated anti-IP1 antibody (Eu+-Ab) prepared in the cell lysis buffer, both from the IP-One kit (Cisbio, MA).
(6) Incubate at room temperature for 10 minutes.
(7) Detect the assay plate (Ex = 320, Em1 =665 and Em2 620) in a ViewLux plate reader.
inositol monophosphatase, IMPase, IMPase inhibitor, lithium, bipolar disorder, IP-One, HTRF, qHTS, NIH roadmap, NCGC
Note: In the gene ID and protein GI references for this assay, rat IMPase is referenced instead of hampster as hamster accession numbers were not available.
Turning to `CCNC(=S)N/N=C/c1ccc(OCC(=O)Nc2ccc(C)cc2)cc1`, the AC50 is 25100 nM [falling, single point]. `CCC(=O)N(Cc1cccs1)C1CCOC(C)(C)C1` (stereo not drawn): the concentration at half-maximal activity (AC50) is 1000 nM [falling, full curve, poor fit]. Then `COc1ccc(C(=O)Nc2ccc(N3CCN(c4ccc(OC)cc4)CC3)c(C#N)c2)cc1`, with 178 nM [falling, full curve, poor fit]; and `CCOC(=O)C1=C(C)NC(=S)N(C(C)=O)C1c1ccccc1` (stereo not drawn), with 398 nM [falling, partial curve]. With `Cc1cc(-c2nnc(SCc3ccccn3)o2)no1`, the AC50 was 3160 nM [falling, single point]. For `O=C1CCCC2=C1C1(CCCCC1)N=C(Nc1nc3ccccc3o1)N2`, the AC50 is 126 nM [falling, full curve].

As for `CCOC(=O)c1oc2cccc(O)c2c1CN1CCOCC1`, the AC50 is 25.1 nM [rising, full curve, poor fit]. Then `Cc1ccccc1C(=O)c1cccn1CC(=O)NCc1ccc2c(c1)OCO2`, with 3.16 nM [falling, full curve, poor fit]; and `COc1ccc(Cc2nc(-c3ccc(Cl)cc3)no2)cc1`, with 5010 nM [rising, single point].

On to `c1ccc2c(c1)CCN2CCN1CCc2ccccc21`, for which the AC50 is 20000 nM [falling, single point]. Then `CCOC(=O)CSc1nnc(CNc2cccc(Cl)c2)n1-c1ccccc1`, with 891 nM [falling, full curve, poor fit]; and `COc1ccccc1NC(=O)NCCCl`, with 63.1 nM [falling, full curve]; and `O=C(NCC(c1cccs1)N1CCOCC1)c1ccc([N+](=O)[O-])cc1` (stereo not drawn), with 631 nM [rising, full curve, poor fit]. Then `O=C(Nc1nc2ccccc2n1Cc1ccccc1)c1ccc(COc2ccccc2[N+](=O)[O-])o1`, with 3980 nM [rising, single point]. Then `Cc1c(N)cccc1-c1nc2ccccc2[nH]1`, with 631 nM [falling, single point]; and `COCc1cc(C)nc(SCC(=O)Nc2ccc(C)c(C)c2)c1C#N`, with 15800 nM [rising, single point]. For `O=C1c2ccccc2C(=O)N1c1cccc(-c2nc3ccccc3o2)c1`, the half-maximal activity concentration (AC50) was 158 nM [falling, single point]. Then `CCOC(=O)N1CCN(C(=O)c2ccc(N3CCCC3=O)cc2)CC1`, with 31.6 nM [rising, full curve, poor fit]; and `COc1ccc2nc3sc(C(=O)N4CCN(c5ccc(F)cc5)CC4)cc3cc2c1`, with 31600 nM [rising, single point]. Then `CCCCCn1c(=O)c(Cc2ccccc2)c(O)c2ccccc21`, with 31600 nM [rising, single point]; and `CC(C)Cn1c(C(C)C)nc([N+](=O)[O-])c1Sc1ccc(Cl)cn1`, with 12600 nM [falling, single point]. In the case of `CCOC(=O)N1CCC(NC(=O)CC(NS(=O)(=O)c2ccc(Cl)cc2)c2ccco2)CC1` (stereo not drawn), the AC50 was 20000 nM [rising, single point]. Then `N#CC1=C(N)C(C#N)(C#N)C(c2ccncc2)C2CN(C(=O)OCc3ccccc3)CC=C12` (stereo not drawn), with 35500 nM [falling, single point]; and `CCOC(=O)CSc1nc2c(sc(=S)n2Cc2ccco2)c(=O)n1-c1ccccc1`, with 3980 nM [rising, partial curve]; and `CCN(CC)c1ccc([N+](=O)[O-])cc1C(=O)O`, with 20 nM [falling, full curve, poor fit]. Then `O=C(CN1CCC(C(=O)c2ccc(F)cc2)CC1)Nc1ccc(F)cc1`, with 1000 nM [falling, full curve]. Regarding `N#CC1=C2SCN(Cc3ccccc3)CN2C(=O)CC1c1cccs1` (stereo not drawn), the AC50 was 12600 nM [rising, partial curve]. Then `O=S(=O)(NC1c2cccc3cccc(c23)C1N1CCN(CCO)CC1)c1ccccc1` (stereo not drawn), with 31.6 nM [rising, full curve, poor fit]; and `O=C(Cc1ccccc1)Nc1nc2ccccc2[nH]1`, with 3160 nM [falling, partial curve]. Then `N=c1c(C(=O)NCc2ccccc2)cc2c(=O)n3ccccc3nc2n1CCCN1CCOCC1`, with 316 nM [falling, full curve, poor fit]. Then `CC1CN(S(=O)(=O)c2cccs2)CC(C)O1` (stereo not drawn), with 89.1 nM [rising, full curve]; and `Brc1cc(Br)c2ncnc(N3CCCCC3)c2c1`, with 12600 nM [rising, partial curve]. With `CN(CCO)c1c2c(nc3cc(-c4cccc(F)c4)nn13)CCCC2`, the AC50 is 5.01 nM [rising, full curve].

In the case of `Cn1nc([N+](=O)[O-])nc1Sc1ccc(Cl)cc1`, the AC50 is 35500 nM [rising, single point]. For `COC(=O)CSc1nc(-c2cccs2)ccc1C#N`, the AC50 was 15800 nM [rising, single point]. Then `CCCCC(=O)Nc1ccc(C(=O)Nc2ccc(S(=O)(=O)N3CCCC3)cc2)cc1`, with 12600 nM [rising, single point]; and `O=C(O)Cc1csc(NC(=O)c2ccco2)n1`, with 5010 nM [falling, full curve, poor fit]. As to `O=C(CSc1ncn(-c2ccccc2)n1)NCc1ccccc1`, the AC50 is 22400 nM [falling, single point]. Then `CC(=O)c1c(C)[nH]c(C(=O)OCC(=O)C(C)(C)C)c1C`, with 63.1 nM [rising, full curve, poor fit]; and `O=C1C(C23CC4CC(CC(C4)C2)C3)C(=O)N(c2ccccc2)N1c1ccccc1`, with 398 nM [falling, full curve]; and `CCCCn1c(=N)n(CC(O)COc2ccc(C)cc2)c2ccccc21` (stereo not drawn), with 25.1 nM [rising, full curve, poor fit].

On to `COc1ccc(NC(=O)CNS(=O)(=O)c2ccccc2)cc1Cl`, for which the AC50 was 22400 nM [falling, partial curve, poor fit]. As for `O=C1c2ccccc2C(=O)N1CCCc1nc(-c2ccncc2)no1`, the AC50 is 15.8 nM [rising, full curve, poor fit].

What is called AC50 is the concentration at which the activity in the assay is half-maximal.
